Experiment [1] addresses T1, CD27 protein (ELISA, form not stated) (UniProt P26842).
T1 sequence (looked up): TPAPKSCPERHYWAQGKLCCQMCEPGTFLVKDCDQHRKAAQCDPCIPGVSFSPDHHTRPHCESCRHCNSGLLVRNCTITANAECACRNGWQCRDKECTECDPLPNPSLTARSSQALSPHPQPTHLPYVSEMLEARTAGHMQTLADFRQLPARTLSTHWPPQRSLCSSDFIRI
The experiment in a line: ELISA (FIG. 6A), against negative BSA control. A general note: An ELISA detects its analyte on a solid surface through an enzyme-linked reagent.

By UniProt entry, the sequences of proteins in these tests, tags left out. Where a name states a change or a piece, a line headed by the entry shows the natural chain unless it says otherwise. Residues count along the entry.
UniProt Q02383: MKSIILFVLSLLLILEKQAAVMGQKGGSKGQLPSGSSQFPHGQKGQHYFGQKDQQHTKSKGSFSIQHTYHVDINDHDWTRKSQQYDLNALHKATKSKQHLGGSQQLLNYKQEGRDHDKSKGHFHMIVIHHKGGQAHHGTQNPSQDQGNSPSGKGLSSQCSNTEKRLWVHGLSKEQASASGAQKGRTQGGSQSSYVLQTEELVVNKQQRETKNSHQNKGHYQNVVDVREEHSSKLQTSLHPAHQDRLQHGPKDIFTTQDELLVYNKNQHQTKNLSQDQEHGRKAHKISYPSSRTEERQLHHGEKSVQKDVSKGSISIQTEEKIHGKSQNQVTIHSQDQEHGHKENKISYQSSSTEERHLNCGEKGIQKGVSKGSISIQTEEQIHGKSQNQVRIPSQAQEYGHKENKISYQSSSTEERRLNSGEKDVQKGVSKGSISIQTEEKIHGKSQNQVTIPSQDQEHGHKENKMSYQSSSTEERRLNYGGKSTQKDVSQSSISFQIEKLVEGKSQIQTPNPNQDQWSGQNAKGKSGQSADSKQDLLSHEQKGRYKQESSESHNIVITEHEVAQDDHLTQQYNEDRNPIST
UniProt P41272, residues 24-250: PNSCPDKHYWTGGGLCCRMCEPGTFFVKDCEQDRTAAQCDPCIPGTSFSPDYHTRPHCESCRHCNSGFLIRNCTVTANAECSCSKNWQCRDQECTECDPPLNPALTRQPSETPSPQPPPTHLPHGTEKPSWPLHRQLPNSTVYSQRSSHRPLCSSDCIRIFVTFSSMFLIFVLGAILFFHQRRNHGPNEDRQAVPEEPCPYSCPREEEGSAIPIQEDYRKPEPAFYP

The target in experiment [2] is T2, SEMG2(497-509) polypeptide … (human).
T2 sequence (peptide): QIEKLVEGKSQIQ
Description: ELISA on coated SEMG2 antigens (FIG. 19).

The target in experiment [3] is human SEMG2 full-length protein (human) (UniProt Q02383). Description: blocking ELISA: SEMG2 on the plate, CD27-Fc added with 10 µg/mL antibody.
Experiment [4] concerns the target T2, SEMG2(497-509) polypeptide … (human). Description: ELISA on immobilized SEMG2 fragments.
In experiment [5] the target is mouse CD27 (expressed in HEK293 cells) (mouse) (UniProt P41272). The experiment in a line: co-immunoprecipitation, HEK293 co-transfection.
For experiment [6], the target named is human CD27 (HA-tagged, expressed in HEK293 cells) (human) (UniProt P26842). The experiment in a line: co-immunoprecipitation, HEK293 co-transfection.
Experiment [7] concerns the target mouse CD27 (expressed in HEK293 cells) (mouse) (UniProt P41272). The experiment in a line: co-immunoprecipitation (FIG. 4, right panel).
Experiment [8] addresses human CD27 (HA-tagged, expressed in HEK293 cells) (human) (UniProt P26842). The experiment in a line: co-immunoprecipitation (FIG. 4, left panel).

For three molecules, binding results are on record in patent US20230080534A1, “SEMG2 ANTIBODY AND USE THEREOF” (SHANGHAI BIOTROY BIOTECHNIQUE CO., LTD., priority 2020, published 2023).

Results are given in words; binding and its absence hold for the method and conditions named. For some assays here: In cells and extracts the contact can be indirect. Some entries that bind do so weakly or less than the wild type. For some assays here: Where a sequence is shown, tags or fusion partners need not be part of it.

In the case of QIEKLVEGKSQIQ (coupled to BSA (site of coupling not stated)) [BSA-conjugated human SEMG2 (497-509) polypeptide], the binding entry in experiment [1] is “binds”.

B1: MM08 (antibody, IgG1, V domains shown)
VH: QVQLQQPGAELVRPGASVKLSCKSSDYTFTRYWMNWVKQRPGQGLEWIGMIDPSDSETHHNQMFKDKATLTVDKSSSTAYMQLSSLTSEDSAVYFCARYLGGKEGSFDYWGQGTTLTVSS
VL: DIVLTQSPSSLAVSAGERVTMSCKSSQSLFNSRTRKNYLAWYQQKPGQSPKLLLYWASTRESGVPDRFTGSGSGTDFTLTISSVKTEDLAVYYCKQSYELPWTFGGGTKLEMKR
B1: the binding entry in experiment [2], in experiment [3] and in experiment [4] was “binds” throughout.
Turning to QIEKLVEGKSQIQ (peptide, not shown: large carriers) [SEMG2-P7 (SEMG2(497-509)) fused with GFP], the binding result in experiment [5], in experiment [6], in experiment [7] and in experiment [8] was “binds” throughout.
